Results as given in the supplement of paper PMC10849652.
The list shows a part of the results.

Amino acid sequences for entries named in this document (tags omitted). A change or cut given only in a name is not applied to a line headed by its entry.
UniProt Q12849: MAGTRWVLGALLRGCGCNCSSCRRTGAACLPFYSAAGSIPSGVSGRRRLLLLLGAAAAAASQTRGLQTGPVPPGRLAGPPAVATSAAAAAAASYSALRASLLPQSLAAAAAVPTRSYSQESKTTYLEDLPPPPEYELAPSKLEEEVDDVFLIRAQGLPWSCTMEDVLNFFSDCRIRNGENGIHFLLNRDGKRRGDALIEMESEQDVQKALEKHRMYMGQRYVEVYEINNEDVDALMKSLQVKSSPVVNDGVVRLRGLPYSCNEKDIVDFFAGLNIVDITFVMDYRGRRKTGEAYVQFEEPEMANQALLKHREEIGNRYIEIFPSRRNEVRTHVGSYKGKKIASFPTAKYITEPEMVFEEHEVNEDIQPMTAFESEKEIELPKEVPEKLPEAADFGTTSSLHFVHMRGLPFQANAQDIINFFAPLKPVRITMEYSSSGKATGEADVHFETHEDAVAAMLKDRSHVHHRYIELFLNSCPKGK
UniProt Q2TAP0: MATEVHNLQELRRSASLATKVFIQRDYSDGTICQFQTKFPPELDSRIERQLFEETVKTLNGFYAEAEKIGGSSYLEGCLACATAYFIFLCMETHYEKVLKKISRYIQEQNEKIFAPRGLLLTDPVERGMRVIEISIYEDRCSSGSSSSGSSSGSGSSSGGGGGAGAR
UniProt Q9NPR9: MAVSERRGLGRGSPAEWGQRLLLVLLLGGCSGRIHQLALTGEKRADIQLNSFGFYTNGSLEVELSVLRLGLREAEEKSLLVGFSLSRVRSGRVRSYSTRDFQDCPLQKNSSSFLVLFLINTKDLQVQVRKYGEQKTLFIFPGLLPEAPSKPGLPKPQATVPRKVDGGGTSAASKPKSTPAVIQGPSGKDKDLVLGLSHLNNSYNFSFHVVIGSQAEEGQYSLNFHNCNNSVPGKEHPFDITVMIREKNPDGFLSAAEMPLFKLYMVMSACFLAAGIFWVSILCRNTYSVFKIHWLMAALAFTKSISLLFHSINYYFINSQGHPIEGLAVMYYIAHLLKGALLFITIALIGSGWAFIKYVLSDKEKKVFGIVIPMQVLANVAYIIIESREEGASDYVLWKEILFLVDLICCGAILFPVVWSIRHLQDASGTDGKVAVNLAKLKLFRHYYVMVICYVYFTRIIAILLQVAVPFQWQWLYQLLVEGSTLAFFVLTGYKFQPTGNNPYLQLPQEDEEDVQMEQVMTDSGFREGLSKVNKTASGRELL
UniProt Q9BXV9: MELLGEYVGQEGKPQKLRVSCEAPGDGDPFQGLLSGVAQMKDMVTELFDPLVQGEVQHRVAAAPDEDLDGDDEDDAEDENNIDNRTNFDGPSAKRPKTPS
UniProt Q9UKJ3: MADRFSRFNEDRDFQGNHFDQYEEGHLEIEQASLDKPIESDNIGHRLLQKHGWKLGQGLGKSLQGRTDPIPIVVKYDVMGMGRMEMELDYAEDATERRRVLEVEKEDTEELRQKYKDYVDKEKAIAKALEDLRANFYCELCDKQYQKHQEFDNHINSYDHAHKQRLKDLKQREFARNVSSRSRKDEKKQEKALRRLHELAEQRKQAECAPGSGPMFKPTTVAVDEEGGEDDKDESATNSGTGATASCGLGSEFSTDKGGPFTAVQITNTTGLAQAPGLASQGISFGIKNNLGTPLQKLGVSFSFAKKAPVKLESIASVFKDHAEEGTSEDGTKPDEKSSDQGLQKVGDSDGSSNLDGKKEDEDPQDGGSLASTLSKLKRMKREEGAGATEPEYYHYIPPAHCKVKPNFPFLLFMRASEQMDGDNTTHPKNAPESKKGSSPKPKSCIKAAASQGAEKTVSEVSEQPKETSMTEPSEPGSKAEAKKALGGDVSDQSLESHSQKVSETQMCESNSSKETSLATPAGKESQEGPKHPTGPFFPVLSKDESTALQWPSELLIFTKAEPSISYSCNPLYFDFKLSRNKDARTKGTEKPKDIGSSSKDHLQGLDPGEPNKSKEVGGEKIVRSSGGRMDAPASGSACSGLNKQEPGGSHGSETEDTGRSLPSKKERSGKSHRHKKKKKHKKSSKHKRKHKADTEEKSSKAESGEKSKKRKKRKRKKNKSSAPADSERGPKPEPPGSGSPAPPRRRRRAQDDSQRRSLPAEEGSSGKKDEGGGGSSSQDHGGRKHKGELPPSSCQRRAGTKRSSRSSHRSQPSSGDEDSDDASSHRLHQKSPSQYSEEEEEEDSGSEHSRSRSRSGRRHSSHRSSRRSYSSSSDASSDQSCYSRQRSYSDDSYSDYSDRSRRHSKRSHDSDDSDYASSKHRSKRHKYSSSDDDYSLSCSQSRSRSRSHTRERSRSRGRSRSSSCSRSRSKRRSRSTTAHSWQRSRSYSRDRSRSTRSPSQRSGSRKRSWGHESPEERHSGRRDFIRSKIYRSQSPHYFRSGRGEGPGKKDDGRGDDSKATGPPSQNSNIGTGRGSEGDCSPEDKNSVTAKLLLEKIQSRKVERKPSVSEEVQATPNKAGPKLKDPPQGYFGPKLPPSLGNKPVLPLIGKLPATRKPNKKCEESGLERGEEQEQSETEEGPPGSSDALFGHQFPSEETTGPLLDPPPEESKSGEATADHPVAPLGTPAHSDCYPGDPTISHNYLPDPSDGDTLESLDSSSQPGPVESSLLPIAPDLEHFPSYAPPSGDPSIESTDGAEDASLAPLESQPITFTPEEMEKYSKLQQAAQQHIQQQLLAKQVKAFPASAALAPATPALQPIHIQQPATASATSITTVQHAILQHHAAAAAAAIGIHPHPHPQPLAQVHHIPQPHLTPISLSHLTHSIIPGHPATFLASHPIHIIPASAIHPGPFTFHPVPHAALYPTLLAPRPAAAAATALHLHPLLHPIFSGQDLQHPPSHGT
UniProt Q9Y5P6: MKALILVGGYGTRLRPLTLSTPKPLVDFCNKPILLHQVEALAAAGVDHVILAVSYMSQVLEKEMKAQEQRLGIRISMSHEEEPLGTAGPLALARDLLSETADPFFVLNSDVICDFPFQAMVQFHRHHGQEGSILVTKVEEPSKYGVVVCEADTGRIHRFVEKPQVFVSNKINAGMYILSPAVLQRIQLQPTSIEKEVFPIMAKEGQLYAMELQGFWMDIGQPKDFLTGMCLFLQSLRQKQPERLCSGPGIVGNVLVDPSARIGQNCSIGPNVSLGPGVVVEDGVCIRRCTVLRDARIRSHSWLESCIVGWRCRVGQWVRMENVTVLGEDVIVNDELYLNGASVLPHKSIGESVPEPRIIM
UniProt Q9UHW5, whole entry, looked up: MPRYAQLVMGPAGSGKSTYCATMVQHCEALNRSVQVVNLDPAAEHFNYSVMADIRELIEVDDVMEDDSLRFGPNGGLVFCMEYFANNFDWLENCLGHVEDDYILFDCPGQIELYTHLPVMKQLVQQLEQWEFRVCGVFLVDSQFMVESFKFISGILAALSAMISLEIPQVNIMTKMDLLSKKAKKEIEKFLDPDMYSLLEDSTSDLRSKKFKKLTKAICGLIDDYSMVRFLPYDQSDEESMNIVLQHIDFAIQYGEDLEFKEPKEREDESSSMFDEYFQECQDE
UniProt Q9BRT9, whole entry, looked up: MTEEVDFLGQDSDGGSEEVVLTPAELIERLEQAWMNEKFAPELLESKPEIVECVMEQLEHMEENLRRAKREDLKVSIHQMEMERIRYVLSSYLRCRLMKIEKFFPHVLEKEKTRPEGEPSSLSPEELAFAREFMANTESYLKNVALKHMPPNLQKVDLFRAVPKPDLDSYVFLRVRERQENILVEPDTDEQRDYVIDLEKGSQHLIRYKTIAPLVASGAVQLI
UniProt P06280: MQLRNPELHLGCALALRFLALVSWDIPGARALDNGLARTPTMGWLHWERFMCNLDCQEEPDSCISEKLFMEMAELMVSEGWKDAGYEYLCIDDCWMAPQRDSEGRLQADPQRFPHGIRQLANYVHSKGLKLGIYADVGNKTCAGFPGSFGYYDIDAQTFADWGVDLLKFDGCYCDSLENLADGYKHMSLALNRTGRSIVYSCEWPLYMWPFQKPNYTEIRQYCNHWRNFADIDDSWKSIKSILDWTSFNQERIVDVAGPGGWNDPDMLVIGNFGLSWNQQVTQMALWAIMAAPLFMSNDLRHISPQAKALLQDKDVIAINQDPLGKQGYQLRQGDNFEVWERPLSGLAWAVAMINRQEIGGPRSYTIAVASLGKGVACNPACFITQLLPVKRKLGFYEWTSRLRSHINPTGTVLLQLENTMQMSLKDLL
UniProt Q49A26: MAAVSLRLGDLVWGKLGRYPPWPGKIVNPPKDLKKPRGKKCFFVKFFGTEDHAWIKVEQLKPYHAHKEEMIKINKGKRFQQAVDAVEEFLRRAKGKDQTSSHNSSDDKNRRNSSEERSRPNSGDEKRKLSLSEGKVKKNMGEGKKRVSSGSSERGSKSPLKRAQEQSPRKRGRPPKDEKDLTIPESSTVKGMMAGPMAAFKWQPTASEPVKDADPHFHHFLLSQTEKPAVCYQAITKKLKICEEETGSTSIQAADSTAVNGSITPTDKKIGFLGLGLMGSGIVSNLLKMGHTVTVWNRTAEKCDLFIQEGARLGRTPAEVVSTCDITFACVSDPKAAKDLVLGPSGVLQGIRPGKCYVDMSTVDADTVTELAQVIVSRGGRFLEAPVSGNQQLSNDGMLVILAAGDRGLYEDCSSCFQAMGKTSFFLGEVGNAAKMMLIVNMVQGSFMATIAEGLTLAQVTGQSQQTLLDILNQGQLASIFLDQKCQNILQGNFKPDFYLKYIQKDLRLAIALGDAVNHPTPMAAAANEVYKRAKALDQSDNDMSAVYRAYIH
UniProt Q86V85: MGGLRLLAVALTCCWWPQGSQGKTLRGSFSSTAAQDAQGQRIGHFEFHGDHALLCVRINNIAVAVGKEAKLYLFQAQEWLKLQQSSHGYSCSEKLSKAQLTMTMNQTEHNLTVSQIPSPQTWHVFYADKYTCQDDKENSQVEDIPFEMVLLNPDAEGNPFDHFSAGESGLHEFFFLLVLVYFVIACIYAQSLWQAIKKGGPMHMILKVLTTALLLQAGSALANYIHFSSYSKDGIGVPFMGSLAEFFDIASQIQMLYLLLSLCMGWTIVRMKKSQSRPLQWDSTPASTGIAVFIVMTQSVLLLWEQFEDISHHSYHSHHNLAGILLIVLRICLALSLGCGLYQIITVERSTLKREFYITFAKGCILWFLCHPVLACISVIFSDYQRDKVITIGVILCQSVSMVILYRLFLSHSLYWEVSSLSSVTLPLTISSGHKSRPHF
UniProt Q86VQ1: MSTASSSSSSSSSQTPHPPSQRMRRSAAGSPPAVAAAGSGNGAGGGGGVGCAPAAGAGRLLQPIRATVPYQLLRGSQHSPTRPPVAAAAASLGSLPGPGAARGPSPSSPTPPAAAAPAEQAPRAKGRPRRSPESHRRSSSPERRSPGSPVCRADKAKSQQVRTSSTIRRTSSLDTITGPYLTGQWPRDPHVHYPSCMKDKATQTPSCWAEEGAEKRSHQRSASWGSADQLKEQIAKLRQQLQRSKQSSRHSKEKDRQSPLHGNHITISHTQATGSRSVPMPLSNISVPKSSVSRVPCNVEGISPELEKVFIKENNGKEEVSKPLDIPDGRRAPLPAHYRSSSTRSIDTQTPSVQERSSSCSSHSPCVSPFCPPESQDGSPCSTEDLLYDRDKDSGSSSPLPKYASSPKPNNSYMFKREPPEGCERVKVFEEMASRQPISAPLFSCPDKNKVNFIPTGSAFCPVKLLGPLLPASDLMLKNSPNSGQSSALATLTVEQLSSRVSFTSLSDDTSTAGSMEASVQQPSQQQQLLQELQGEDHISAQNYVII

Experiments:
Assay in all cases: log2 fold change, soluble protein after heating vs DMSO (PISA); higher = thermal stabilisation; K562 cells, 10 uM, 30 min; active = over 0.2 and 3.5 SD of the protein, either way, in both replicates (recomputed)
saracatinib = compound: CN1CCN(CCOc2cc(OC3CCOCC3)c3c(Nc4c(Cl)ccc5c4OCO5)ncnc3c2)CC1 [saracatinib]
Procedure, shortened: (§1)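 Aliquots of K562 cells (2×10^6 cells/mL) treated with 10 μM compound for 30 min were heated for 3 min over 48°C-58°C. After pooling and extraction in PBS with 0.5% NP-40 at 4°C, soluble protein from a 21,000xg, 90 min spin was quantified by TMTpro 16plex LC-MS/MS with channel sums equalised. Thermal stability is expressed against control samples, from duplicates, as a log2 fold change.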

sotrastaurin = compound: CN1CCN(c2nc(C3=C(c4c[nH]c5ccccc45)C(=O)NC3=O)c3ccccc3n2)CC1 [sotrastaurin]
Procedure, shortened: as §1

alvocidib = compound: CN1CC[C@H](c2c(O)cc(O)c3c(=O)cc(-c4ccccc4Cl)oc23)[C@H](O)C1 [alvocidib]
Procedure, shortened: as §1

Tubastatin A = compound: CN1CCc2c(c3ccccc3n2Cc2ccc(C(=O)NO)cc2)C1 [Tubastatin A]
Procedure, shortened: as §1

[1] = compound: CNC(=O)C1=CC=CC=C1NC2=NC(=NC=C2Cl)NC3=C(C=C(C=C3)N4CCOCC4)OC
Procedure, shortened: as §1

defactinib = compound: CNC(=O)c1ccc(Nc2ncc(C(F)(F)F)c(NCc3nccnc3N(C)S(C)(=O)=O)n2)cc1 [defactinib]
Procedure, shortened: as §1

rucaparib = compound: CNCc1ccc(-c2[nH]c3cc(F)cc4c3c2CCNC4=O)cc1 [rucaparib]
Procedure, shortened: as §1

[2] = compound: CNc1nc(-c2ccc3c(N)n[nH]c3c2)cc(N2C[C@@H](C(=O)NC3CCCCC3)CC[C@H]2C)n1
Procedure, shortened: as §1

encorafenib = compound: COC(=O)N[C@@H](C)CNc1nccc(-c2cn(C(C)C)nc2-c2cc(Cl)cc(NS(C)(=O)=O)c2F)n1 [encorafenib]
Procedure, shortened: as §1

[3] = compound: COC(=O)[C@H](CCSC)NC(=O)C1=C(C=C(C=C1)NC[C@H](CS)N)C2=CC=CC=C2
Procedure, shortened: as §1

Measured: log2 fold change

GRSF1 (UniProt Q12849)
inactive: saracatinib -0.106 | sotrastaurin -0.182 | alvocidib -0.045 | Tubastatin A 0.156 | [1] -0.09 | defactinib 0.003 | rucaparib 0.312 | [2] 0.051 | encorafenib 0.12 | [3] 0.021

GOLGA7B (UniProt Q2TAP0)
inactive: saracatinib -0.034 | sotrastaurin -0.118 | alvocidib -0.061 | Tubastatin A -0.034 | [1] 0.101 | defactinib 0.038 | rucaparib -0.073 | [2] 0.023 | encorafenib -0.027 | [3] -0.051

GPI (UniProt P06744)
inactive: saracatinib 0.028 | sotrastaurin 0.011 | alvocidib -0.075 | Tubastatin A -0.014 | [1] -0.034 | defactinib -0.016 | rucaparib -0.064 | [2] 0.002 | encorafenib -0.002 | [3] -0.005

GORASP2 isoform 3 (UniProt Q9H8Y8)
inactive: saracatinib -0.022 | sotrastaurin -0.162 | alvocidib -0.089 | Tubastatin A 0.005 | [1] 0.056 | defactinib -0.103 | rucaparib 0.065 | [2] 0.072 | encorafenib 0.108 | [3] -0.1

GPR108 (UniProt Q9NPR9)
inactive: saracatinib -0.005 | sotrastaurin 0.048 | alvocidib -0.025 | Tubastatin A -0.027 | [1] -0.021 | defactinib 0.009 | rucaparib 0.131 | [2] -0.041 | encorafenib -0.05 | [3] 0.136

GON7 (UniProt Q9BXV9)
inactive: saracatinib 0.022 | sotrastaurin 0.088 | alvocidib -0.012 | Tubastatin A 0.133 | [1] -0.069 | defactinib -0.05 | rucaparib -0.069 | [2] 0.033 | encorafenib 0.01 | [3] 0.156

GPATCH8 (UniProt Q9UKJ3)
inactive: saracatinib 0.194 | sotrastaurin 0.051 | alvocidib 0.003 | Tubastatin A 0.012 | [1] -0.188 | defactinib -0.022 | rucaparib -0.05 | [2] -0.093 | encorafenib -0.002 | [3] 0.028

GMPPB isoform 2 (UniProt Q9Y5P6)
inactive: saracatinib 0 | sotrastaurin -0.016 | alvocidib -0.023 | Tubastatin A -0.021 | [1] -0.05 | defactinib -0.009 | rucaparib -0.079 | [2] 0.023 | encorafenib 0.012 | [3] -0.028

GPN3 isoform 2 (UniProt Q9UHW5)
inactive: saracatinib 0.057 | sotrastaurin 0.025 | alvocidib 0.085 | Tubastatin A -0.024 | [1] -0.065 | defactinib 0.023 | rucaparib -0.055 | [2] 0.012 | encorafenib -0.029 | [3] -0.004

GINS4 (UniProt Q9BRT9)
inactive: saracatinib -0.021 | sotrastaurin -0.094 | alvocidib -0.063 | Tubastatin A 0.049 | [1] -0.072 | defactinib -0.047 | rucaparib -0.004 | [2] 0.016 | encorafenib -0.03 | [3] -0.041

Reprinted from above (4 entries):
GORASP2 isoform 3 (UniProt Q9H8Y8)
inactive: saracatinib -0.022 | sotrastaurin -0.162 | alvocidib -0.089 | Tubastatin A 0.005 | [1] 0.056 | defactinib -0.103 | rucaparib 0.065 | [2] 0.072 | encorafenib 0.108 | [3] -0.1

GPR108 (UniProt Q9NPR9)
inactive: saracatinib -0.005 | sotrastaurin 0.048 | alvocidib -0.025 | Tubastatin A -0.027 | [1] -0.021 | defactinib 0.009 | rucaparib 0.131 | [2] -0.041 | encorafenib -0.05 | [3] 0.136

GON7 (UniProt Q9BXV9)
inactive: saracatinib 0.022 | sotrastaurin 0.088 | alvocidib -0.012 | Tubastatin A 0.133 | [1] -0.069 | defactinib -0.05 | rucaparib -0.069 | [2] 0.033 | encorafenib 0.01 | [3] 0.156

GPATCH8 (UniProt Q9UKJ3)
inactive: saracatinib 0.194 | sotrastaurin 0.051 | alvocidib 0.003 | Tubastatin A 0.012 | [1] -0.188 | defactinib -0.022 | rucaparib -0.05 | [2] -0.093 | encorafenib -0.002 | [3] 0.028

(continued)

GLA (UniProt P06280)
inactive: saracatinib 0.056 | sotrastaurin -0.027 | Tubastatin A -0.027 | [1] -0.02 | defactinib 0.008 | rucaparib 0.04 | [2] -0.043 | encorafenib -0.022 | [3] 0.059

GLYR1 (UniProt Q49A26)
inactive: saracatinib 0.007 | sotrastaurin 0.028 | Tubastatin A -0.077 | [1] 0.021 | defactinib -0.029 | rucaparib 0.211 | [2] 0.04 | encorafenib -0.044 | [3] -0.033

GPR180 (UniProt Q86V85)
inactive: saracatinib 0.094 | sotrastaurin -0.05 | alvocidib -0.138 | Tubastatin A -0.057 | defactinib -0.017 | [2] 0.33 | [3] 0.067

GOLIM4 (UniProt F8W785)
inactive: saracatinib 0.014 | sotrastaurin 0.075 | alvocidib 0.035 | Tubastatin A 0.05 | defactinib 0.025 | rucaparib 0.079 | [2] 0.006 | encorafenib 0.012 | [3] -0.021

GON4L (UniProt Q3T8J9)
inactive: saracatinib 0.053 | sotrastaurin -0.032 | alvocidib -0.093 | Tubastatin A -0.068 | rucaparib 0.047 | [2] -0.017 | encorafenib 0.123

GLCCI1 (UniProt Q86VQ1)
inactive: saracatinib -0.017 | sotrastaurin -0.016 | Tubastatin A 0.082 | [1] -0.057 | defactinib -0.072 | rucaparib 0.087 | [2] -0.063 | encorafenib 0.026 | [3] -0.051
